Test system: polyclonal rabbit antiserum specific for amylin
Assay: Interference with the amylin radioimmunoassay displacement curve
Conditions: for Effect on the 125I-human amylin displacement curve: glibenclamide 1 μM, metformin 100 μM, tolbutamide 100 μM

Row | Compound | Effect on the hamster amylin displacement curve (glucagon 5 μM, somatostatin 100 nM) | Effect on the 125I-human amylin displacement curve
1 | C[C@H](N)C(=O)NCC(=O)N[C@H]1CSSC[C@@H](C(=O)O)NC(=O)[C@H](CO)NC(=O)[C@H]([C@@H](C)O)NC(=O)[C@H](Cc2ccccc2)NC(=O)[C@H]([C@@H](C)O)NC(=O)[C@H](CCCCN)NC(=O)[C@H](Cc2c[nH]c3ccccc23)NC(=O)[C@H](Cc2ccccc2)NC(=O)[C@H](Cc2ccccc2)NC(=O)[C@H](CC(N)=O)NC(=O)[C@H](CCCCN)NC1=O [Somatostatin] | no effect | 
2 | COc1ccc(Cl)cc1C(=O)NCCc1ccc(S(=O)(=O)NC(=O)NC2CCCCC2)cc1 [glibenclamide] |  | no effect
3 | CN(C)C(=N)N=C(N)N [metformin] |  | no effect
4 | CCCCNC(=O)NS(=O)(=O)c1ccc(C)cc1 [tolbutamide] |  | no effect
